The source of these data is the supplement of paper PMC6411743.

Chains of the proteins cited; added tags and fusions are not shown. Lines headed by an entry give the natural chain unless they say otherwise; changes in a name come on top.
UniProt Q9Y4D8: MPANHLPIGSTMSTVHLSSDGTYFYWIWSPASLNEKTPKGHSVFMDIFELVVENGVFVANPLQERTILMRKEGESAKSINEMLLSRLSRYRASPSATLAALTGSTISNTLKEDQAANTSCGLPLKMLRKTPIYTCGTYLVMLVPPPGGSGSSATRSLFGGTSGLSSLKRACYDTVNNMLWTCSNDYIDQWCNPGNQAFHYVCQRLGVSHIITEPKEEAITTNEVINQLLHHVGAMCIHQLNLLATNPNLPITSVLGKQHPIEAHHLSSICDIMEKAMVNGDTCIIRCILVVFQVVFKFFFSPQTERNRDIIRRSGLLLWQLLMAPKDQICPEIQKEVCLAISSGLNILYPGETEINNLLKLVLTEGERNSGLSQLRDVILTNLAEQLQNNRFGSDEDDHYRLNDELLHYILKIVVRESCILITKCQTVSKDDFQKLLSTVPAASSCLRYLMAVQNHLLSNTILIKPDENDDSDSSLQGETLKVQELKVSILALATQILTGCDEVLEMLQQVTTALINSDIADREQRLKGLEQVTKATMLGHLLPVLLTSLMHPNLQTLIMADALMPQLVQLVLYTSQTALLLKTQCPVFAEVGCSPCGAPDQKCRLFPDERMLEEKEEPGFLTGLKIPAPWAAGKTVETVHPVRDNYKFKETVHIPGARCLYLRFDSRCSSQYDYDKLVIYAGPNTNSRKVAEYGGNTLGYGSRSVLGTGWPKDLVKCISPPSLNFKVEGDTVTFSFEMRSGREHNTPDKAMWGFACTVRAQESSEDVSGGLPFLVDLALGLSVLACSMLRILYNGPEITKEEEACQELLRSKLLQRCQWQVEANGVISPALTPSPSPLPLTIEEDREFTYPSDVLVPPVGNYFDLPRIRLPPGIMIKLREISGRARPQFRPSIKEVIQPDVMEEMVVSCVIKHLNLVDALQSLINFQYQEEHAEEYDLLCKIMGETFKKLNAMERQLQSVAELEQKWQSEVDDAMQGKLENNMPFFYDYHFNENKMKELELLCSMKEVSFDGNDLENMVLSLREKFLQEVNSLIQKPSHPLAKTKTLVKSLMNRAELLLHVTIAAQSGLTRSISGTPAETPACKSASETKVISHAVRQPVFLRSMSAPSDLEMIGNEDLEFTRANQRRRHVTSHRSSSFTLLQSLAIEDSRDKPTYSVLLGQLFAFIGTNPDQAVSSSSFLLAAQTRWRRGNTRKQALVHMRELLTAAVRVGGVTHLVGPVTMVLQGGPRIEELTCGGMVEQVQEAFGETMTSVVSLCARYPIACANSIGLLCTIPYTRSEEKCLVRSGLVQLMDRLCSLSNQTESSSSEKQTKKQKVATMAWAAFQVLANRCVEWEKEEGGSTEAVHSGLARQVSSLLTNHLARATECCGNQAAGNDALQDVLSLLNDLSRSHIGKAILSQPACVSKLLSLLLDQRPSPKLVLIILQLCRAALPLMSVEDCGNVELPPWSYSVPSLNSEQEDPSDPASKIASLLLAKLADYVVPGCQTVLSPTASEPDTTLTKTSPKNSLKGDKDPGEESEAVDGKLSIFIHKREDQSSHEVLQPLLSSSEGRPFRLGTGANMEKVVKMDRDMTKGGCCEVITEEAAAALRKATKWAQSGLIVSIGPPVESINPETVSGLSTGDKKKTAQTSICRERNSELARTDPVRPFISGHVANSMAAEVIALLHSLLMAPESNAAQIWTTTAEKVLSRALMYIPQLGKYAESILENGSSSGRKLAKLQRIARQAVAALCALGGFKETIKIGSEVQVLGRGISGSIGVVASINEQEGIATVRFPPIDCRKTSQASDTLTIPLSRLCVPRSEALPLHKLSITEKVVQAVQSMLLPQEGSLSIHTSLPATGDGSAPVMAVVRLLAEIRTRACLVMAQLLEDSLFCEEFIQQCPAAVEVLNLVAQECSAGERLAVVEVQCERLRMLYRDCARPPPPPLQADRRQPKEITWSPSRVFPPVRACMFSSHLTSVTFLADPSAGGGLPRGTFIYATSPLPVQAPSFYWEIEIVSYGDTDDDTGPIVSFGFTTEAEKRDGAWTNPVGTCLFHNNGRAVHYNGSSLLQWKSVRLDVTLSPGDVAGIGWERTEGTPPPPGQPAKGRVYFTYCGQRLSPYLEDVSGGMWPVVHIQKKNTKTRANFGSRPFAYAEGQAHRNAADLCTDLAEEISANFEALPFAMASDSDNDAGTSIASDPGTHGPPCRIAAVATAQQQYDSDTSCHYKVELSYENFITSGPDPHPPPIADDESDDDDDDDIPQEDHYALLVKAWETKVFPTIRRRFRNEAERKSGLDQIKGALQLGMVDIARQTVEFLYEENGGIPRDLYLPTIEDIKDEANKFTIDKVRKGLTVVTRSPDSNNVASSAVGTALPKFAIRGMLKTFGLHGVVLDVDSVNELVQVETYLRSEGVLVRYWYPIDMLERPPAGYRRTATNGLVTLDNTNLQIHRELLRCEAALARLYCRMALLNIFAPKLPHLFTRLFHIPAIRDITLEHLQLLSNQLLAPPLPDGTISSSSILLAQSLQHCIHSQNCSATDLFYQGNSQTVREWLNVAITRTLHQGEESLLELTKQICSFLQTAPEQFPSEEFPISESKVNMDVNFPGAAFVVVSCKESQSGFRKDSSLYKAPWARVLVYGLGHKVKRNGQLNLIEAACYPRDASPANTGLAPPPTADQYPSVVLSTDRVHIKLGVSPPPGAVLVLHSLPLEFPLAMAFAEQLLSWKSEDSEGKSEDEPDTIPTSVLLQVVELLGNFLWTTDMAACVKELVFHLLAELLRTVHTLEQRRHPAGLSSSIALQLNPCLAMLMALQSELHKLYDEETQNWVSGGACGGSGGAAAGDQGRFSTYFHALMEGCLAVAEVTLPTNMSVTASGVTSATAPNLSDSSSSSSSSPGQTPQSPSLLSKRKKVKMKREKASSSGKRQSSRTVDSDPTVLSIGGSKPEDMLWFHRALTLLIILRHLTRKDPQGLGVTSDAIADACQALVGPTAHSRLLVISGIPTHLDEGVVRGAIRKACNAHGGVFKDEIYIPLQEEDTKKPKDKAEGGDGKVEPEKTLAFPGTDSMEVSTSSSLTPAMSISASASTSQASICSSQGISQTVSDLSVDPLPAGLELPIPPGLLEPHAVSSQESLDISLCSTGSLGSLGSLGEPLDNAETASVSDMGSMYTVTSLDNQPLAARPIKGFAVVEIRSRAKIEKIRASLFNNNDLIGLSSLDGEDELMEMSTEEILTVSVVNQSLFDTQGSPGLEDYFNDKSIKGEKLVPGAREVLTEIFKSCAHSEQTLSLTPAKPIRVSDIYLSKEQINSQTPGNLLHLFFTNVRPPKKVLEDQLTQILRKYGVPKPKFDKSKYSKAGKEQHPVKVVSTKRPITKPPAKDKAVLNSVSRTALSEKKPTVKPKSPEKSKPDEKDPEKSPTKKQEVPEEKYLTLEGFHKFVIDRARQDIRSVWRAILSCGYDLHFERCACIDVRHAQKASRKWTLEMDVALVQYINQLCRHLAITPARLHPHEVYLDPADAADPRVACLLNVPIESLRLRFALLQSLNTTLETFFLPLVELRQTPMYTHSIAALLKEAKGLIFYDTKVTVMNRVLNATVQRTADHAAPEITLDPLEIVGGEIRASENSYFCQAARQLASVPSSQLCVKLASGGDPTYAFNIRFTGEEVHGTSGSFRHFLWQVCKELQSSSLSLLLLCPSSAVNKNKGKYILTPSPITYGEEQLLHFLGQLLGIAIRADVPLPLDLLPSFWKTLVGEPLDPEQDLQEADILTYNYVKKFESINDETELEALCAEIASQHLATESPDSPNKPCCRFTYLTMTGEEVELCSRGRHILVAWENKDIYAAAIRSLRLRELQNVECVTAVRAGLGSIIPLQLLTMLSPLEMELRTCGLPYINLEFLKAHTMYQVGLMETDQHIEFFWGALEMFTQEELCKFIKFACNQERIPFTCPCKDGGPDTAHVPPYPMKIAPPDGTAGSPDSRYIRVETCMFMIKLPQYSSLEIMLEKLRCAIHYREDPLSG
UniProt Q9NWH9: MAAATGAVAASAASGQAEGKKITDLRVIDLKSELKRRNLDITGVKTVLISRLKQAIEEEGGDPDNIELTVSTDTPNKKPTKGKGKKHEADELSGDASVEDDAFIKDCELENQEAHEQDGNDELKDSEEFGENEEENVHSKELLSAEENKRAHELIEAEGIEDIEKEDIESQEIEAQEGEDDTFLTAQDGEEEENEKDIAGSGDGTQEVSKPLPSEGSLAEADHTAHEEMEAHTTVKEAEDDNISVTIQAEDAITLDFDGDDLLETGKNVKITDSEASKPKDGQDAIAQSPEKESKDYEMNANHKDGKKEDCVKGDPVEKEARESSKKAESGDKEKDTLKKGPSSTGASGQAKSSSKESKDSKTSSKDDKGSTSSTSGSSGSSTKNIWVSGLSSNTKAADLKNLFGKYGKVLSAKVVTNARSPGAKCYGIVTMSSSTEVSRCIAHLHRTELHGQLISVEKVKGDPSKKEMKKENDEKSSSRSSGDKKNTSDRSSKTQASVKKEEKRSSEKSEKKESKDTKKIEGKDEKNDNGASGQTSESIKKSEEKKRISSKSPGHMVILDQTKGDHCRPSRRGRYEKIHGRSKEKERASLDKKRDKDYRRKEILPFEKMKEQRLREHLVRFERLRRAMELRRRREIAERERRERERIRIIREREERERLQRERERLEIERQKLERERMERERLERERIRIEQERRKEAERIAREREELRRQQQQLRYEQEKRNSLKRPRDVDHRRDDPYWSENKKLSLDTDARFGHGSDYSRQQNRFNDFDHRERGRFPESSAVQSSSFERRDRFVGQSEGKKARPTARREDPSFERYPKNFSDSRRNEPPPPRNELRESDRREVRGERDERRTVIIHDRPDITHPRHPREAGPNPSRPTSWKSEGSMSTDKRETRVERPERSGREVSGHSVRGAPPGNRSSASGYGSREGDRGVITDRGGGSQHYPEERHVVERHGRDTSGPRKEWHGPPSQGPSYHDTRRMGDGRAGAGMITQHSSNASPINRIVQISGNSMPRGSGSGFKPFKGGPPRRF
UniProt Q07955, whole entry: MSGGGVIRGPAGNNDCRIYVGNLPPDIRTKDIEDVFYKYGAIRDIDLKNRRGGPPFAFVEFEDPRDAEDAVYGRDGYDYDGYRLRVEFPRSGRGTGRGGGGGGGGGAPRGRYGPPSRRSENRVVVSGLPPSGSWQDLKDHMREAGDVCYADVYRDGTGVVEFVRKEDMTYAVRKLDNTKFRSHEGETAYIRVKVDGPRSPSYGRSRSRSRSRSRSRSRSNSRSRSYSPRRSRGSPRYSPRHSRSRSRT
UniProt Q49A26: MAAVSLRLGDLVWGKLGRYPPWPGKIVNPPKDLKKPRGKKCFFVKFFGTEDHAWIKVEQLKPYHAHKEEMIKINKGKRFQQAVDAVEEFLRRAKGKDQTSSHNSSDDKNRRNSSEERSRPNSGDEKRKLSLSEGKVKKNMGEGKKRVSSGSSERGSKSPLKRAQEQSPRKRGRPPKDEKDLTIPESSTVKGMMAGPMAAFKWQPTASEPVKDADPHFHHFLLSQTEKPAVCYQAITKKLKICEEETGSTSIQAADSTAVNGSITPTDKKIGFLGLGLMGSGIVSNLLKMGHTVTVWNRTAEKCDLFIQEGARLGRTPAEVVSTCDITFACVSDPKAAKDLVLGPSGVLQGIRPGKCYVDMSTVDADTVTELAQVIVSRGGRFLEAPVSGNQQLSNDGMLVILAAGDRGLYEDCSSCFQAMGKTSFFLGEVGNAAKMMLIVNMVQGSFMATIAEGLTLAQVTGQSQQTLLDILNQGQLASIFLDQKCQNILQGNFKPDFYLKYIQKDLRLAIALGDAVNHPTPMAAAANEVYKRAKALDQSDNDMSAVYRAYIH
UniProt P78549: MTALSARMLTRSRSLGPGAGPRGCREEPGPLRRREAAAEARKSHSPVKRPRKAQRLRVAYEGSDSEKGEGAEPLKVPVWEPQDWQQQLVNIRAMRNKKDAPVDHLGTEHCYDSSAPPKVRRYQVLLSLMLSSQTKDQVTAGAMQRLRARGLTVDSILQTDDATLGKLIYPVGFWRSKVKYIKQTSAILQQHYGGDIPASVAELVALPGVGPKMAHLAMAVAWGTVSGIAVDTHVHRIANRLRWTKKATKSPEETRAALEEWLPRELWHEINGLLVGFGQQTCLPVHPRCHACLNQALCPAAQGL
UniProt Q96GD4, whole entry: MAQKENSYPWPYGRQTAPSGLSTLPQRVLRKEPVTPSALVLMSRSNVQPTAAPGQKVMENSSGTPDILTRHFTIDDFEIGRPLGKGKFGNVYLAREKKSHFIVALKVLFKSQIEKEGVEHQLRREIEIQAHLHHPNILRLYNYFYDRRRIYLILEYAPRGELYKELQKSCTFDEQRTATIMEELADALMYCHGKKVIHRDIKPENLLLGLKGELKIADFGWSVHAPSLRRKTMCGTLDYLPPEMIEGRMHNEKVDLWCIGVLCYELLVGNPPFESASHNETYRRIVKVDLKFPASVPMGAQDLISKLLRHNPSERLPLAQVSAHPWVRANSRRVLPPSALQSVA

± gives the standard deviation of the averaged measurements. Only a part is listed here, and it is no random draw. Most values lie at the level of the controls, where differences are scatter.

Compound in the experiment: Nc1ncnc2c1ncn2[C@@H]1O[C@H](COP(=O)(O)OP(=O)(O)OP(=O)(O)O)[C@@H](O)[C@H]1O [adenosine triphosphate]
Nature of the experiment: NP40-soluble protein abundance relative to vehicle (solubility fold change) (ratio); higher = more soluble protein in presence of ATP. The settings on record: concentration: 0.5mM. In outline:
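Each value is a fold change relative to the detergent-processed vehicle, calculated per replicate from vsn-normalised intensities. Jurkat crude lysate received eight concentrations (0.1 to 10 mM) for 10 min at room temperature and 3 min at 37 °C, then was solubilised in 0.8% NP40 with benzonase (60 min, 4 °C). The ultracentrifuged supernatant was TMT-labelled and run by LC-MS/MS in three independent experiments.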
On to “I3L0L6 and related entries (UniProt Q9H6Y7)”, for which the NP40-soluble protein abundance is 0.911 ± 0.09.

Regarding “J3KPS0 and related entries (UniProt Q9NXW2)”, the NP40-soluble protein abundance was 0.964 ± 0.098. As for J3KPF0 (UniProt Q9Y4D8), the NP40-soluble protein abundance was determined as 1.04 ± 0.066. For the target “I3L448 and related entries (UniProt Q5TC12)”, the NP40-soluble protein abundance stood at 0.989 ± 0.032. For the target “H0YLE6 and related entries (UniProt Q9NWH9)”, the NP40-soluble protein abundance came out at 1 ± 0.05. On to “G5E9V5 and related entries (UniProt P82650)”, for which the NP40-soluble protein abundance stood at 1.01 ± 0.076. On to “J3KTL2 and related entries (UniProt Q07955)”, for which the NP40-soluble protein abundance amounted to 1.26 ± 0.055.

Take “K7EIY6 and related entries (UniProt Q9BV68)”: the NP40-soluble protein abundance stood at 0.896 ± 0.096. As to “K7ELH7 and related entries (UniProt Q8IVV7)”, the NP40-soluble protein abundance worked out at 1.05 ± 0.052. As for “J3QL71 and related entries (UniProt Q96FV2)”, the NP40-soluble protein abundance turned out to be 0.9969 ± 0.0083.

Consider “H3BTR4 and related entries (UniProt Q96BT3)”, for which the NP40-soluble protein abundance was 1.06 ± 0.16. The figure for “H7C5F5 and related entries (UniProt Q9H2U1)” is 1 ± 0.11; for “K7EK70 and related entries (UniProt Q49A26)” it is 1.11 ± 0.056; for “K7ENL9 and related entries (UniProt Q96DM3)” it is 1.06 ± 0.058.

As for “J3QTA6 and related entries (UniProt Q9BRQ6)”, the NP40-soluble protein abundance amounted to 0.949 ± 0.072. With “H7C5U8 and related entries (UniProt Q9P0M9)”, the NP40-soluble protein abundance stood at 1.03 ± 0.25. Consider “H0YM92 and related entries (UniProt P01130)”, for which the NP40-soluble protein abundance was 0.987 ± 0.015. For “H3BPD5 and related entries (UniProt P78549)”, the NP40-soluble protein abundance was determined as 1.01 ± 0.08. On to “J3KTD6 and related entries (UniProt Q96GD4)”, for which the NP40-soluble protein abundance turned out to be 1.29 ± 0.1.

Turning to “H3BSH7 and related entries (UniProt Q969X6)”, the NP40-soluble protein abundance came out at 1.12 ± 0.2.
